Data reported in paper PMC12097036.

By UniProt entry, the sequences of proteins in these tests, tags left out.
UniProt P20340: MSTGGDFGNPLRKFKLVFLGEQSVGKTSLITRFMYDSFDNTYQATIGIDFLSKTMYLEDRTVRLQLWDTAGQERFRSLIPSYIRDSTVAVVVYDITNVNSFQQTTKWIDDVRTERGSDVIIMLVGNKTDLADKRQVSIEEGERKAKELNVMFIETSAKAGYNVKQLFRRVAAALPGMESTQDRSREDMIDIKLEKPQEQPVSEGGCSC
UniProt Q9NRW1: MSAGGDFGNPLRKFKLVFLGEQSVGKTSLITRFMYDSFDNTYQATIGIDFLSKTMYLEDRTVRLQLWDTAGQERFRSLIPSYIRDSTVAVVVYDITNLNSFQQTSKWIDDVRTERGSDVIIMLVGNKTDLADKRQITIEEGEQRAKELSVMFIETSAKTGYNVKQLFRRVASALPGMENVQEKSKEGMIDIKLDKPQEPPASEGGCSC
UniProt P51149: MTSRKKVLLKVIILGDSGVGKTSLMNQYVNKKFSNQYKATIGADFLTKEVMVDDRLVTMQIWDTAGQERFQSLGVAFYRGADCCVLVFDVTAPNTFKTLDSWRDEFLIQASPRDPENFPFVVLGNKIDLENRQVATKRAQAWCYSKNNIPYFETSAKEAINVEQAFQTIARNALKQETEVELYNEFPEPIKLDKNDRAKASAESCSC

T1: Flag-RAB3B (human) (UniProt P20337)
T1 sequence: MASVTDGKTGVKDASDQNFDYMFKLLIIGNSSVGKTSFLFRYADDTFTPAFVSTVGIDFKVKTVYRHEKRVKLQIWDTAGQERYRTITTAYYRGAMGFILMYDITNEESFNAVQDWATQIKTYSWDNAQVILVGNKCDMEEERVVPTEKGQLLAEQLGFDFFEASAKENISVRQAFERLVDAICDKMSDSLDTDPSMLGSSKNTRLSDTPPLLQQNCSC

B1: RAB3A (protein, UniProt P20336 1-220)
chain: MASATDSRYGQKESSDQNFDYMFKILIIGNSSVGKTSFLFRYADDSFTPAFVSTVGIDFKVKTIYRNDKRIKLQIWDTAGQERYRTITTAYYRGAMGFILMYDITNEESFNAVQDWSTQIKTYSWDNAQVLLVGNKCDMEDERVVSSERGRQLADHLGFEFFEASAKDNINVKQTFERLVDVICEKMSESLDTADPAVTGAKQGPQLSDQQVPPHQDCAC
B2: PPM1B (enzyme, UniProt O75688 1-479)
chain: MGAFLDKPKTEKHNAHGAGNGLRYGLSSMQGWRVEMEDAHTAVVGIPHGLEDWSFFAVYDGHAGSRVANYCSTHLLEHITTNEDFRAAGKSGSALELSVENVKNGIRTGFLKIDEYMRNFSDLRNGMDRSGSTAVGVMISPKHIYFINCGDSRAVLYRNGQVCFSTQDHKPCNPREKERIQNAGGSVMIQRVNGSLAVSRALGDYDYKCVDGKGPTEQLVSPEPEVYEILRAEEDEFIILACDGIWDVMSNEELCEYVKSRLEVSDDLENVCNWVVDTCLHKGSRDNMSIVLVCFSNAPKVSDEAVKKDSELDKHLESRVEEIMEKSGEEGMPDLAHVMRILSAENIPNLPPGGGLAGKRNVIEAVYSRLNPHRESDGASDEAEESGSQGKLVEALRQMRINHRGNYRQLLEEMLTSYRLAKVEGEESPAEPAATATSSNSDAGNPVTMQESHTESESGLAELDSSNEDAGTKMSGEKI

What follows are molecules tested against T1, Flag-RAB3B (human) (assay: affinity purification with mass spectrometry; IP of RAB3B from cell lysate on beads (M2 or HA-conjugated beads, 4 °C, 120 min; lysis buffer 150 mM NaCl, 0.5% NP-40, 1 mM EDTA, 50 mM Tris-Cl pH 7.4), beads analysed by MS; cell line and bait construct not stated).

Row | Molecule | binding
1 | DUSP12 (from UniProt Q9UNI6 1-340) (enzyme) | binds
2 | RAB6A (from UniProt P20340 1-208) | binds
3 | RAB6B (from UniProt Q9NRW1 1-208) | binds
4 | RAB7A (from UniProt P51149 1-207) | binds
5 | B1 | binds
6 | B2 | binds

These are yes or no findings as the source states them, for the method shown. Binding seen in cells or lysates may run through a third protein. These calls come from enrichment with a bait or labelling near it, and not all partners need be listed. Where a sequence is shown, tags or fusion partners need not be part of it.
